Measured data: PubChem BioAssay AID1671195 (Yale University, 2021)
The deposit covers about 22,000 reagents; below is a part drawn at random. Over the whole deposit, about 1,510 (6.9%) got an active call. 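Active includes knockdowns raising or lowering LDL uptake; positive z-scores mean more uptake, negative mean less.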 Entries without a mark were called inactive.

Purpose: 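Genes whose knockdown alters LDL uptake in liver cancer cells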 (primary screen)
Cell system: human Huh7 hepatoma cells
Reagent: siRNA pool against human genes, 18 nM
Duration: about 2 to 2.5 days of knockdown, then 8 h LDL uptake
Challenge: DiI-labelled LDL at 30 µg/ml for 8 h, in lipoprotein-deficient serum medium
Measured: 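Fluorescent LDL signal imaged in cells, scaled to the plate median, robust z-score for each replicate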
Direction: robust z-score: higher = more LDL uptake after knockdown
Active means: 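Active when two or more replicates show a robust z-score above 2 or below -2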

OR51S1 (olfactory receptor family 51 subfamily S member 1) gave robust z-score, replicate 1 = 0.449; robust z-score, replicate 2 = 0.369; robust z-score, replicate 3 = 0.572.
Knock-down of CLCN4 (Cl-/H+ antiporter 4) resulted in: robust z-score, replicate 1 = -0.231; robust z-score, replicate 2 = -0.107; robust z-score, replicate 3 = 0.024.
Against LOC442011 (retired record), the entry reads robust z-score, replicate 1 = -0.0522; robust z-score, replicate 2 = 0.0451; robust z-score, replicate 3 = 0.294.
LRRC39 (leucine rich repeat containing 39) scored robust z-score, replicate 1 = 0.373; robust z-score, replicate 2 = 0.218; robust z-score, replicate 3 = -0.691.
With knock-down of LINC03086 (long independently transcribed non-coding RNA 3086), the screen gave robust z-score, replicate 1 = -0.126; robust z-score, replicate 2 = -0.232; robust z-score, replicate 3 = 0.091.
Depletion of METTL9 (methyltransferase 9, His-X-His N1(pi)-histidine) came out at: robust z-score, replicate 1 = -0.412; robust z-score, replicate 2 = 2.1; robust z-score, replicate 3 = 1.25.
LINC02914 (long independently transcribed non-coding RNA 2914) scored robust z-score, replicate 1 = -1.25; robust z-score, replicate 2 = -1.17; robust z-score, replicate 3 = -1.25.
Silencing of PPP1R27 (protein phosphatase 1 regulatory subunit 27) resulted in: robust z-score, replicate 1 = -2.52; robust z-score, replicate 2 = -0.891; robust z-score, replicate 3 = -0.977.
Knock-down of KRABD4 (KRAB domain containing 4) gave: robust z-score, replicate 1 = -1.09; robust z-score, replicate 2 = -1.04; robust z-score, replicate 3 = -0.893.
Knock-down of PCDH18 (protocadherin 18) came out at: robust z-score, replicate 1 = -2.24 (active); robust z-score, replicate 2 = -2.19; robust z-score, replicate 3 = -2.4.
Depletion of LRIT2 (leucine rich repeat, Ig-like and transmembrane domains 2) came out at: robust z-score, replicate 1 = -1.45; robust z-score, replicate 2 = -1.47; robust z-score, replicate 3 = -1.47.
For TMOD3 (tropomodulin 3), the values are robust z-score, replicate 1 = 0.281; robust z-score, replicate 2 = 0.0696; robust z-score, replicate 3 = 0.234.
With knock-down of LOC388526 (retired record) the results were robust z-score, replicate 1 = -1.77; robust z-score, replicate 2 = -1.41; robust z-score, replicate 3 = -1.38.
For ZNF366 (zinc finger protein 366), the entry reads robust z-score, replicate 1 = 0.933; robust z-score, replicate 2 = 0.474; robust z-score, replicate 3 = 0.489.
With knock-down of ZMIZ1-AS1 (ZMIZ1 antisense RNA 1), the screen gave robust z-score, replicate 1 = -0.786; robust z-score, replicate 2 = -0.663; robust z-score, replicate 3 = -0.8.
With knock-down of SUGT1 (SGT1 assembly cochaperone of MIS12 kinetochore complex) the results were robust z-score, replicate 1 = -0.0806; robust z-score, replicate 2 = 0.183; robust z-score, replicate 3 = -0.975.
Knock-down of LOC400553 gave: robust z-score, replicate 1 = 0.588; robust z-score, replicate 2 = 0.722; robust z-score, replicate 3 = 1.18.
With knock-down of LOC148766 (retired record), the record shows robust z-score, replicate 1 = 0.505; robust z-score, replicate 2 = 0.64; robust z-score, replicate 3 = 0.791.
Knock-down of PADI1 (peptidyl arginine deiminase 1) resulted in: robust z-score, replicate 1 = -0.863; robust z-score, replicate 2 = -0.572; robust z-score, replicate 3 = -0.828.
After knock-down of OR4K5 (olfactory receptor family 4 subfamily K member 5), the record shows robust z-score, replicate 1 = 0.586; robust z-score, replicate 2 = 0.894; robust z-score, replicate 3 = 0.82.
After knock-down of SDK1 (sidekick cell adhesion molecule 1), the record shows robust z-score, replicate 1 = 0.929; robust z-score, replicate 2 = 1.33; robust z-score, replicate 3 = 1.48.
POC5 (POC5 centriolar protein) gave robust z-score, replicate 1 = 0.197; robust z-score, replicate 2 = 0.648; robust z-score, replicate 3 = 0.158.
After knock-down of LOC130839 (retired record), the record shows robust z-score, replicate 1 = 0.207; robust z-score, replicate 2 = 0.386; robust z-score, replicate 3 = -0.221.
RIMKLB (ribosomal modification protein rimK like family member B) showed robust z-score, replicate 1 = 0.000946; robust z-score, replicate 2 = 0.95; robust z-score, replicate 3 = 0.302.

Entries listed so far with an active call:
PCDH18 (protocadherin 18) | robust z-score, replicate 1 = -2.24 (active); robust z-score, replicate 2 = -2.19; robust z-score, replicate 3 = -2.4
